Results are given in words; binding and its absence hold for the method and conditions named. Binding seen in cells or lysates may run through a third protein. Some binding calls cover weakened binding; strength is not graded here.

The target of the test is T1, BCL2, mouse (mouse (endogenous in mouse skeletal muscle and brain)), P10417.
T1 chain: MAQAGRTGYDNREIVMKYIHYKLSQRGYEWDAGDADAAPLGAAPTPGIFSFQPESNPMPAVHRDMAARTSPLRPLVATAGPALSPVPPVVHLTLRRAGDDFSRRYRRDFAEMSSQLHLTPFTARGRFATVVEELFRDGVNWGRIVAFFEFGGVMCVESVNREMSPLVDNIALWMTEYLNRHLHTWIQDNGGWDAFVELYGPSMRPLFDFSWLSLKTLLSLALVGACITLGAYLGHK
Briefly: co-IP; skeletal muscle and brain of WT and Becn1^FA/FA mice homogenized in 50 mM Tris pH 7.5, 150 mM NaCl, 1 mM EDTA, 1% Triton X-100; immunoprecipitation with anti-BCL2 antibody agarose beads, blot for BECN1 and BCL2. As to conditions: remark: other sources report otherwise.

B1: BECN1 (Beclin 1), wild-type mouse, O88597 1-448 (protein)
chain: MEGSKASSSTMQVSFVCQRCSQPLKLDTSFKILDRVTIQELTAPLLTTAQAKPGETQEEEANSGEEPFIETRQDGVSRRFIPPARMMSTESANSFTLIGEASDGGTMENLSRRLKVTGDLFDIMSGQTDVDHPLCEECTDTLLDQLDTQLNVTENECQNYKRCLEILEQMNEDDSEQLQRELKELALEEERLIQELEDVEKNRKVVAENLEKVQAEAERLDQEEAQYQREYSEFKRQQLELDDELKSVENQVRYAQIQLDKLKKTNVFNATFHIWHSGQFGTINNFRLGRLPSVPVEWNEINAAWGQTVLLLHALANKMGLKFQRYRLVPYGNHSYLESLTDKSKELPLYCSGGLRFFWDNKFDHAMVAFLDCVQQFKEEVEKGETRFCLPYRMDVEKGKIEDTGGSGGSYSIKTQFNSEEQWTKALKFMLTNLKWGLAWVSSQFYNK
On to B1, for which the binding entry is given as “binds”.

Values taken from article PMC5570506.
